Source: ChEMBL document CHEMBL3988442, “University of Dundee, Small-Polar-MMV Screening Library” (2021).

Results are given as percent effect.
The controls that fix the scale are not given in the record; negative values are as filed.
The compounds are a random part of those screened.

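Whole-parasite assay of Trypanosoma brucei over 72 hours; the read-out is not stated. Concentration: 30 µM. Higher reads as stronger inhibition (inferred: compounds with an IC50 in retests scored well above the rest). Values scatter widely below zero; nearly all retest evidence comes from the higher of the two concentrations used. Size under these conditions: about 64,000 compounds, about 940 of them at 50% or above in at least one test.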

Cn1cc(CCNC(=O)c2cc3ccccc3nc2N2CCCC2)cn1 read 42.98%.
Cc1cc(C(=O)N2CCc3nc(N4CCOCC4)nc(C)c3C2)c(C)o1.O=CO read -13.8%.
CC[C@H](C)Nc1ncc(-c2ccn(C3CCN(C(C)=O)CC3)n2)cn1 read -5.339%.
c1cc(-c2cnccn2)cc(-c2ccn(CCN3CCCCC3)n2)c1 read 8.226%.
COc1cccc2c3c(c(=O)[nH]c12)CC(C)(C)O3 read -20.81%.
O=C(NC1CCCN(c2ccccn2)C1)C1(c2ccccc2F)CC1 (configuration not stated) read -2.181%.
COCCN1CCN(Cc2coc(-c3ccccc3Cl)n2)CC1 read -18.19%.
COc1cc2c(cc1-c1nc3c(cnn3C(C)C(C)C)[nH]1)OCO2 (configuration not stated) read -16.15%.
O=C(O)C(F)(F)F.[H][C@@]12CN(Cc3cccs3)CCO[C@]1([H])CN(S(=O)(=O)CCC)C2 read -47.34%.
CCC(=O)NCCc1cc2nc(-c3ccncc3)ccn2n1 read 2.773%.
COC(=O)c1ccc2ccn(CC3CCCCO3)c(=O)c2c1 (configuration not stated) read -24.42%.
O=C(NC1CC(=O)N(C2Cc3ccccc3C2)C1)c1cnccn1 (configuration not stated) read -28.67%.
COCCC(=O)Nc1ccnn1-c1ccccc1 read -14.06%.
Cc1cc(C)n(CC2CCCN2C(=O)c2cnn(C)c2C2CC2)n1 (configuration not stated) read 6.657%.
Cc1cc(NC(=O)C(C)C)n(-c2nc(C)c(C)c(=O)[nH]2)n1 read -25.4%.
c1ccc(-c2nc(CN3CCCC3Cn3cncn3)cs2)cc1 (configuration not stated) read -5.656%.
Cc1oncc1C(=O)N1CCC2(CC1)CN(S(C)(=O)=O)c1ccccc12 read 1.39%.
[H][C@@]12CCN(S(=O)(=O)c3cccs3)[C@]1([H])CCC(=O)N2CCOC read -23.02%.
COc1cc(CNCc2ccc(-n3nc(C)cc3C)nc2)cc(OC)c1 read 5.745%.
COc1nonc1NCn1nc(C)cc1C read -59.85%.
COc1c(C)cnc(CN(C)C2CCN(C3CCOCC3)CC2)c1C read -11.24%.
CC(=O)N1CCN(c2ccccc2CNc2cncc(C)c2)CC1 read -4.058%.
O=C(c1cscn1)N1CCC(Cn2cc(-c3ccsc3)nn2)CC1 read -16.26%.
O=C(NCCn1ccnc1-c1cc2n(n1)CCCNC2)c1ccncc1 read -46.76%.
Cc1cc(C)n(CCCNC(=O)NCc2c(C)cc(C)[nH]c2=O)n1 read 7.799%.
CS(=O)(=O)CC1CCCN(C(=O)Cn2cccc(C(F)(F)F)c2=O)C1 (configuration not stated) read -16.04%.
COc1c(-c2ccc(O)cc2)oc2cc(O)cc(O)c2c1=O read 4.423%.
CC(=O)Nc1nc(C(=O)N2CCCC2c2noc(C)n2)cs1 (configuration not stated) read -32.55%.
Cc1nc(-c2cc(C(=O)N3CCN(C)CC3)c3ccccn23)cn1C read -22.13%.
Cc1cncc(CN2CC[C@@](O)(CNC(=O)c3c[nH]cn3)[C@H](O)C2)c1 read -15.67%.
CC(C)Cc1nc(CN(C)CCOc2ccc(F)cc2)no1 read 17.1%.
CCC(O)CNc1nccc(-c2ccc(C)nc2C)n1 (configuration not stated) read -0.8772%.
CC(C)N(C)S(=O)(=O)N1CCCC1C(=O)N1CCSCC1 (configuration not stated) read -39.32%.
CC(C)c1ccc(CN[C@@H]2COC[C@H]2c2ccc(F)cc2)cc1 read -34.93%.
COc1ccccc1CNC(Cn1cncn1)c1ccccc1 (configuration not stated) read -22.95%.
CN1CCC(Cc2cccc(-c3cc(F)ccc3C(=O)O)n2)CC1 read -16.35%.
Cc1cc(C)n(CC2CCCN2Cc2cccc(C#N)c2)n1 (configuration not stated) read -29.02%.
CC(=O)N1CCC(C(=O)NC2CC(C)(C)Oc3cc(C)ccc32)CC1 (configuration not stated) read -1.284%.
CSc1nc(C)cc(N2CCC(c3ncc[nH]3)CC2)n1 read 7.848%.
CC(C)NC(=O)C1CCC2(CCNCC2)C1 (configuration not stated) read -4.402%.

Some entries from above, unchanged:

| SMILES | Percent Effect |
|---|---|
| `COc1c(-c2ccc(O)cc2)oc2cc(O)cc(O)c2c1=O` | 4.423% |
| `CC(=O)N1CCN(c2ccccc2CNc2cncc(C)c2)CC1` | -4.058% |
| `CSc1nc(C)cc(N2CCC(c3ncc[nH]3)CC2)n1` | 7.848% |